Our source for the cell number change and AC50 values is PubChem BioAssay AID2685 (National Center for Advancing Translational Sciences (NCATS), 2010).

Molecules are shown by their SMILES. The list shows a part of the results. These are further read-outs of the screen, such as a control signal, another cell line or another target. No call is given for them. The list favours compounds with an active or inconclusive main result. Words in brackets tell the shape of the fitted curve; partial curves, single points and poor fits give uncertain potencies.

The assay in a line: qHTS Assay for Lipid Storage Modulators in Drosophila S3 Cells.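 As to cell number change: cells counted by Cell Tracker Red CMTPX staining in the red channel.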 As to conditions: BODIPY lipid droplet fluorescence, 18-24 h; for cell number change: measured here: cell count max response, cells fed with added oleic acid. In outline: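 Drosophila S3 cells got compounds at several concentrations plus oleic acid (400 uM solution). Laser-scanning cytometry with 488 nm excitation read lipid droplets at 500-530 nm and cells at 575-640 nm. Percent activity was relative to 20 uM Triacsin C.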

The mark [1] stands for this setting: measured here: lipid fluorescence (Fed channel) AC50, cells fed with added oleic acid.
[2] abbreviates: measured here: cell number channel AC50, cells fed with added oleic acid.

The AC50 is the midpoint of the concentration-response curve, whichever way the signal moves. Low values mean greater potency, high ones weaker potency. Regarding `O=C(c1cccc(C(F)(F)F)c1)C1CCCN(Cc2ncc[nH]2)C1` (configuration not stated), the cell number change came out at 26.8%. Also, under setting [1], the AC50 was 0.0058 µM [rising, full curve, poor fit].

Turning to `Cc1ccc(N=Nc2cc(C)ccc2N)cc1`, under setting [2], the AC50 is 7.31 µM [falling, partial curve].

For the compound `CC(=O)N1CC(=O)Nc2ccc(C)cc2C1c1ccccc1` (configuration not stated), the cell number change was -15.7%. For the same compound, under setting [1], the AC50 was 0.0517 µM [falling, full curve, poor fit].

Turning to `CCC(C)n1c(O)c(/C=N/NC(=O)c2ccncc2)c(=O)[nH]c1=S` (configuration not stated), the cell number change was -22.2%. Also, the AC50 under setting [2] was 0.13 µM [falling, full curve, poor fit].

As to `Cc1ccccc1NC(=O)Cc1nc(COC(=O)Cc2ccccc2)cs1`, the cell number change is 34.6%. Moreover, under setting [2], the AC50 is 7.31 µM [rising, partial curve, poor fit]. Besides, the concentration at half-maximal activity (AC50) under setting [1] is 1.84 µM [rising, partial curve].

As for `CCCCn1c(O)c(C=NC2CCCCC2N)c(=O)[nH]c1=O` (configuration not stated), the cell number change was 12.5%.

For the compound `O=c1[nH]c(=S)n(Cc2ccc(F)cc2)c(O)c1C=NCc1cccnc1`, the AC50 runs as follows: under setting [2], 4.11 µM [rising, single point]; under setting [1], 6.51 µM [rising, single point].

For `CCC(=NCc1ccco1)c1c(O)[nH]c(=O)[nH]c1=O`, the cell number change is -1.4%. Also, the AC50 under setting [1] was 2.31 µM [falling, single point].

Regarding `CCCCn1c(NS(=O)(=O)c2ccc(C)cc2)c(C(=O)OCC)c2nc3ccccc3nc21`, the cell number change came out at 21.4%. The half-maximal activity concentration (AC50) under setting [1] was 1.46 µM [rising, partial curve].

With `CCN1CCN(c2cc(=O)n3ccccc3n2)CC1`, the cell number change is -0.794%.

On to `CCN(CC)P(=O)(C(NC(=O)OC)C(F)(F)C(F)(F)C(F)(F)C(F)F)N(CC)CC` (configuration not stated), for which, under setting [2], the concentration at half-maximal activity (AC50) was 29.1 µM [rising, single point].

For `CCN(CC)CCCN=Cc1c(O)n(CCc2ccc(OC)c(OC)c2)c(=O)[nH]c1=O`, the half-maximal activity concentration (AC50) by setting is: under setting [2], 0.58 µM [falling, single point]; under setting [1], 29.1 µM [falling, single point].

Take `COc1ccc2[nH]cc(CCN)c2c1`: the cell number change turned out to be 30.5%. The AC50 under setting [2] was 18.4 µM [rising, single point]. Under setting [1], the half-maximal activity concentration (AC50) is 18.4 µM [rising, single point].

As for `COc1cc(/C=C2/C(=O)NC(=O)N(c3ccccc3)C2=O)ccc1O`, the cell number change worked out at 31.7%. For the same compound, the AC50 under setting [2] is 29.1 µM [rising, single point]. Moreover, the AC50 under setting [1] was 0.103 µM [rising, full curve, poor fit].

For the compound `CCNC(=S)N(C)CCc1cc2c(c(OC)c1C=C1C(=O)N(C)C(=O)N(C)C1=O)OCO2`, the AC50 under setting [1] was 6.51 µM [rising, single point].

`CCC(=Nc1ccc(OC)cc1OC)c1c(O)[nH]c(=O)[nH]c1=O`: the cell number change was -8.24%. Further, the AC50 under setting [1] is 7.31 µM [rising, single point].

On to `O=C(COc1ccc(Br)cc1)N1CCN(Cc2ccc3c(c2)OCO3)CC1`, for which the cell number change was determined as 34.7%. Also, the AC50 under setting [1] is 1.64 µM [rising, partial curve, poor fit].

On to `Nc1ncc([N+](=O)[O-])s1`, for which the cell number change is -8.59%. In addition, the AC50 under setting [1] is 9.2 µM [rising, single point].

For `O=C(Cc1ccccc1)N1CCN(CC2CC3C=CC2C3)CC1` (configuration not stated), the cell number change came out at 23.5%. Also, the half-maximal activity concentration (AC50) under setting [1] is 4.11 µM [rising, full curve, poor fit].

Take `CC(=O)CC(c1ccccc1[N+](=O)[O-])c1c(O)c2ccccc2oc1=O` (configuration not stated): the cell number change was -11.5%. Besides, the AC50 under setting [1] was 6.51 µM [falling, single point].

On to `Clc1ccc(CNC2CN3CCC2CC3)cc1` (configuration not stated), for which the concentration at half-maximal activity (AC50) under setting [1] was 32.6 µM [rising, single point].

As for `COc1ccc2[nH]cc(CCNCc3cccnc3)c2c1`, the cell number change turned out to be 3.85%. Besides, the AC50 under setting [1] was 11.6 µM [rising, partial curve].

As to `CCN(CC)C(=O)c1ccc(NC(=O)COc2ccccc2F)cc1`, under setting [2], the AC50 was 0.651 µM [rising, single point].

`CCCc1[nH]nc2c1C1(C(=O)N(Cc3ccccc3)c3ccccc31)C(C(=O)OC)=C(N)O2` (configuration not stated): the cell number change was -64.6%. For the same compound, the AC50 under setting [2] is 0.00461 µM [falling, full curve, poor fit]. The AC50 under setting [1] is 6.51 µM [falling, full curve].

For `C=CCn1c(O)c(/C=N/N2CCCCC2c2cccnc2)c(=O)[nH]c1=S` (configuration not stated), the cell number change was determined as 7.91%. For the same compound, the half-maximal activity concentration (AC50) under setting [2] was 0.517 µM [falling, single point]. Moreover, the AC50 under setting [1] was 0.58 µM [falling, single point].

As to `O=c1[nH]cc(COCC(F)(F)C(F)(F)C(F)(F)F)c(=O)[nH]1`, the cell number change was 103%. The AC50 under setting [2] was 16.4 µM [rising, partial curve]. The concentration at half-maximal activity (AC50) under setting [1] was 0.651 µM [rising, partial curve, poor fit].

As to `Cc1ccc(C2CC3CCC(C2)N3Cc2ccccc2F)cc1` (configuration not stated), the cell number change was -8.07%.

In the case of `COc1ccc(-c2nn(CCC#N)cc2C(=O)O)cc1`, the cell number change was -14%. Moreover, the AC50 under setting [1] is 23.1 µM [falling, single point].

In the case of `CC(=O)C1C2c3ccccc3O[C@@]1(C)N=c1s/c(=C/c3ccoc3)c(=O)n12` (some centres not stated), the cell number change stood at 2.04%. Besides, under setting [1], the AC50 was 0.461 µM [falling, single point].

For `CC1(C)C[C@H]2C=C(C=O)[C@]3(C=O)C[C@]3(C)[C@H]2C1`, the cell number change was -82.4%. Also, the AC50 under setting [2] was 5.8 µM [falling, full curve]. Further, the concentration at half-maximal activity (AC50) under setting [1] is 5.17 µM [falling, full curve].

For the compound `Cn1c(O)c(C(=O)c2ccccc2F)c(=O)n(C)c1=O`, the cell number change is 18.9%. For the same compound, the half-maximal activity concentration (AC50) under setting [2] is 0.411 µM [falling, full curve, poor fit]. In addition, under setting [1], the AC50 is 23.1 µM [falling, partial curve].

As for `CCN(CC)CCCOC(=O)C(OC)(c1ccccc1)c1ccccc1`, the cell number change is -64.2%. Also, the half-maximal activity concentration (AC50) under setting [2] was 1.03 µM [falling, full curve]. For the same compound, the AC50 under setting [1] was 18.4 µM [falling, single point].

Turning to `COc1cccc(CNC2CN3CCC2CC3)c1OC` (configuration not stated), under setting [1], the AC50 was 4.11 µM [falling, single point].

`CCCC(=O)Nc1cc(C(=O)N2CCC3(CC2)OCCO3)ccc1S(=O)(=O)c1ccc(C)cc1`: the cell number change was -22.3%. Moreover, the half-maximal activity concentration (AC50) under setting [1] was 32.6 µM [falling, single point].

In the case of `Cc1cc(OCC(=O)NCC(O)c2ccccc2)c2c3c(c(=O)oc2c1)CCC3` (configuration not stated), the concentration at half-maximal activity (AC50) under setting [1] is 14.6 µM [falling, partial curve].

As to `CN1CCN(c2c(C#N)c(C(F)(F)F)nn2C)CC1`, the cell number change came out at 64.3%. The concentration at half-maximal activity (AC50) under setting [2] was 0.00517 µM [falling, full curve, poor fit]. Under setting [1], the half-maximal activity concentration (AC50) was 6.51 µM [falling, single point].
